Weaker means in comparison with the reference protein, sequence or condition of that experiment.
target: His-AaTCP14 (His-TF-AaTCP14) (Artemisia annua) (UniProt A0A5A4N0D4); test: EMSA; conditions: DIG Gel Shift Kit 2nd Generation (Roche); 0.5 ug His-AaTCP14 or His-TF; pH and temperature not stated; recombinant protein; residues 1-369; protein details: His-TF (pCold-TF); label: DIG (kit)

Chains of the proteins cited; added tags and fusions are not shown.
UniProt A0A5A4N0D4, entry or part of it: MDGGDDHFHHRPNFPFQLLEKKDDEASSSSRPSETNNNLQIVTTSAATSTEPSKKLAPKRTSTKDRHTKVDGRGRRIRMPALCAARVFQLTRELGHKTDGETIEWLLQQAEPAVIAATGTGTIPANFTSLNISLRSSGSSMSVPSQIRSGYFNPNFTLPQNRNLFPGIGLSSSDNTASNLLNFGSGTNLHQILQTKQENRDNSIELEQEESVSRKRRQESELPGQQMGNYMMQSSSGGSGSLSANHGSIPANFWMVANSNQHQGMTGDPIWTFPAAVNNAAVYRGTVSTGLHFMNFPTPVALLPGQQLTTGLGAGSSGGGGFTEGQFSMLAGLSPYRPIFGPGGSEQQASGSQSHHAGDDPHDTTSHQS

Binding result, binds more weakly:
GGTTGGTTGCATTATCTGGCAAACACGTAAACAATCAAATGC (double strand) [A1q-mutated1], GGTTGGTTGCATTATCTTTAAAACACGTAAACAATCAAATGC (double strand) [A1q-mutated2], GTCGCTAAACTTGCCACGGTAAACATTTTTCAACTCTTATTA (double strand) [D2q-mutated1], GTCGCTAAACTTGCCACGTTGAAACATTTTTCAACTCTTATTA (double strand) [D2q-mutated2]
